The supplement of paper PMC12542422
Structures can show the parent of a compound that is named as a salt. ± gives the standard deviation of the averaged measurements. Some of the results follow. Values are raw readings; no control value is given beside them.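 Across three biological replicates, HeLa cells were imaged for ribosome assembly using ENP1 staining (export block present or absent) or inducible tagged ribosomal protein reporters. Machine learning classified each cell's signal localization relative to DMSO controls. Hits exceeded the DMSO false-positive mean by five standard deviations and were then visually confirmed.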

What follows are compounds tested on HeLa RPL29-GFP reporter (assay: fraction of reporter-positive cells with nuclear (nucleolar or nucleolar/nucleoplasmic) RPL29-GFP (MainHitrate); higher = more cells with nucleolar/nuclear readout signal (for ENP1 -LMB: less RNAPI inhibition; for +LMB ENP1 and RP reporters: stronger nuclear/nucleolar retention, i.e. ribosome biogenesis defect)). Details: concentration: 1 µM; treatment time: 6 h.

SMILES	fraction of reporter-positive cells with nuclear
CCCCC(=O)O[C@]1(C(=O)CO)[C@@H](C)C[C@H]2[C@@H]3CCC4=CC(=O)C=C[C@]4(C)[C@@]3(F)[C@@H](O)C[C@@]21C [Betamethasone valerate (Betnovate)]	0.253 ± 0.044
O=c1oc2cc(O)ccc2s1 [Tioxolone]	0.232 ± 0.064
CN1C(C(=O)Nc2ccccn2)=C(O)c2ccccc2S1(=O)=O [Piroxicam (Feldene)]	0.184 ± 0.037
CC1(C)S[C@@H]2[C@H](NC(=O)[C@H](NC(=O)N3CCNC3=O)c3ccccc3)C(=O)N2[C@H]1C(=O)O [Azlocillin sodium salt]	0.21 ± 0.073
CN1CCC[C@H]1c1cccnc1 [Nicotine Ditartrate]	0.293 ± 0.25
CO[C@H]1/C=C/O[C@@]2(C)Oc3c(C)c(O)c4c(O)c(c(/C=N/N5CCN(C)CC5)c(O)c4c3C2=O)NC(=O)/C(C)=C\C=C\[C@H](C)[C@H](O)[C@@H](C)[C@@H](O)[C@@H](C)[C@H](OC(C)=O)[C@@H]1C [Rifampin (Rifadin, Rimactane)]	0.221 ± 0.089
CCOC(=O)C1=C[C@@H](OC(CC)CC)[C@H](NC(C)=O)[C@@H](N)C1 [Oseltamivir phosphate (Tamiflu)]	0.204 ± 0.046
O=S(=O)(O)NC1CCCCC1 [Cyclamic  acid]	0.213 ± 0.055
CS(=O)(=O)CCNCc1ccc(-c2ccc3ncnc(Nc4ccc(OCc5cccc(F)c5)c(Cl)c4)c3c2)o1 [Lapatinib]	0.269 ± 0.08
Nc1ccc(/N=N/c2ccccc2)c(N)n1 [Phenazopyridine HCl]	0.199 ± 0.066
COC(c1ccccc1)(c1ccccc1)[C@H](Oc1nc(C)cc(C)n1)C(=O)O [Ambrisentan]	0.189 ± 0.057
Nc1[nH]cnc2ncnc1-2 [Adenine sulfate]	0.239 ± 0.11
CC(C(=O)O)c1cccc(Oc2ccccc2)c1 (configuration not stated) [Fenoprofen calcium]	0.22 ± 0.083
O=C(O)C1(C(=O)O)CCC1.[NH2-].[NH2-].[Pt+2] [Carboplatin]	0.204 ± 0.058
CC[C@@H](CO)NCCN[C@@H](CC)CO [Ethambutol HCl]	0.21 ± 0.068
CCCCOc1cc(C(=O)OCCN(CC)CC)ccc1N [Oxybuprocaine HCl]	0.204 ± 0.066
O=C(O)c1ccccc1 [Benzoic acid]	0.193 ± 0.026
Cc1c(Cl)cccc1Nc1ccccc1C(=O)O [Tolfenamic acid]	0.236 ± 0.067
COc1ccc(CNc2nc(N3CCC[C@H]3CO)ncc2C(=O)NCc2ncccn2)cc1Cl [Avanafil]	0.207 ± 0.058
CN(C(=O)CN(CCO)CC(=O)N(C)C(C)(C)Cc1ccccc1)C(C)(C)Cc1ccccc1 [Oxethazaine]	0.305 ± 0.28
CCN(Cc1ccncc1)C(=O)C(CO)c1ccccc1 (configuration not stated) [Tropicamide]	0.212 ± 0.085
CCN1CCN(c2cc3c(cc2F)c(=O)c(C(=O)O)cn3C2CC2)CC1 [Enrofloxacin]	0.22 ± 0.068
CC(C)(O/N=C(\C(=O)N[C@@H]1C(=O)N2C(C(=O)[O-])=C(C[n+]3ccccc3)CS[C@H]12)c1csc(N)n1)C(=O)O [Ceftazidime Pentahydrate]	0.316 ± 0.26
C[C@@H](O)[C@H]1C(=O)N2C(C(=O)O)=C(S[C@@H]3CN[C@H](C(=O)N(C)C)C3)[C@H](C)[C@H]12 [Meropenem]	0.202 ± 0.049
CCN(CC)CC#CCOC(=O)C(O)(c1ccccc1)C1CCCCC1 (configuration not stated) [Oxybutynin (Ditropan)]	0.234 ± 0.064
NC(CO)C(=O)NNCc1ccc(O)c(O)c1O (configuration not stated) [Benserazide]	0.209 ± 0.072
NS(=O)(=O)c1cc(Cl)c(Cl)c(S(N)(=O)=O)c1 [Dichlorphenamide (Diclofenamide)]	0.251 ± 0.076

A few values from the list.
For fraction of reporter-positive cells with nuclear, `CCN(CC)CC#CCOC(=O)C(O)(c1ccccc1)C1CCCCC1` (configuration not stated) [Oxybutynin (Ditropan)] reads 0.234 ± 0.064
For fraction of reporter-positive cells with nuclear, `CCCCOc1cc(C(=O)OCCN(CC)CC)ccc1N` [Oxybuprocaine HCl] reads 0.204 ± 0.066
